According to paper PMC10338684:
No constants are given. Whether binding was seen depends on the method and setting. For some assays here: In cells and extracts the contact can be indirect. Some results given as binding are weak or reduced against the parent protein; the word gives no strength. Tags and fused reporters may be left off the sequences shown.

T1: MOM1 CMM2 domain (aa1660-aa1860), yeast two-hybrid fusion (Arabidopsis thaliana) (UniProt Q9M658)
T1 sequence: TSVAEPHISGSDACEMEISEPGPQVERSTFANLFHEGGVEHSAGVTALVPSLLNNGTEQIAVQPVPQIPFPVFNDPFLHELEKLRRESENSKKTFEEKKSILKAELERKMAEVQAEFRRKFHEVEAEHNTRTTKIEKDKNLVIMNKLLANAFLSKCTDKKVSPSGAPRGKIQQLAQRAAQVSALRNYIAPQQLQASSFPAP

T2: MORC6, yeast two-hybrid fusion (Arabidopsis thaliana) (UniProt Q56Y74)
T2 sequence: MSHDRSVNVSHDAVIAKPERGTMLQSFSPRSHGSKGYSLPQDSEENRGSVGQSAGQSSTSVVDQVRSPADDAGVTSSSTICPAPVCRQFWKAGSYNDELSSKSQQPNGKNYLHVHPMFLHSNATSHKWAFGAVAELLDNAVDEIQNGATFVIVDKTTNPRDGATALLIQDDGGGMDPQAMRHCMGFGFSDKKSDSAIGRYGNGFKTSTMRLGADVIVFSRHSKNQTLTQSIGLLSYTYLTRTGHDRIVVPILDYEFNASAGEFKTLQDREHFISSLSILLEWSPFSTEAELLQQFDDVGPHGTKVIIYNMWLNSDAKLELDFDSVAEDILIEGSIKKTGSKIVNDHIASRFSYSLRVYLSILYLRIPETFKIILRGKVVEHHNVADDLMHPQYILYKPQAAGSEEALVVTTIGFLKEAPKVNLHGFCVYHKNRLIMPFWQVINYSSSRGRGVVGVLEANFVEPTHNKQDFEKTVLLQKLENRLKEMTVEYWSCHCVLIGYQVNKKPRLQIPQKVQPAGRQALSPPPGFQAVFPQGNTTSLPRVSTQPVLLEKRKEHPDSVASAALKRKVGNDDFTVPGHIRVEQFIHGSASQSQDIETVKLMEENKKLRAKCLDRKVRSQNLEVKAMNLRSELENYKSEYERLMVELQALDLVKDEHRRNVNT

T3: MORC6-FLAG (Arabidopsis thaliana) (UniProt Q56Y74)
T3 sequence: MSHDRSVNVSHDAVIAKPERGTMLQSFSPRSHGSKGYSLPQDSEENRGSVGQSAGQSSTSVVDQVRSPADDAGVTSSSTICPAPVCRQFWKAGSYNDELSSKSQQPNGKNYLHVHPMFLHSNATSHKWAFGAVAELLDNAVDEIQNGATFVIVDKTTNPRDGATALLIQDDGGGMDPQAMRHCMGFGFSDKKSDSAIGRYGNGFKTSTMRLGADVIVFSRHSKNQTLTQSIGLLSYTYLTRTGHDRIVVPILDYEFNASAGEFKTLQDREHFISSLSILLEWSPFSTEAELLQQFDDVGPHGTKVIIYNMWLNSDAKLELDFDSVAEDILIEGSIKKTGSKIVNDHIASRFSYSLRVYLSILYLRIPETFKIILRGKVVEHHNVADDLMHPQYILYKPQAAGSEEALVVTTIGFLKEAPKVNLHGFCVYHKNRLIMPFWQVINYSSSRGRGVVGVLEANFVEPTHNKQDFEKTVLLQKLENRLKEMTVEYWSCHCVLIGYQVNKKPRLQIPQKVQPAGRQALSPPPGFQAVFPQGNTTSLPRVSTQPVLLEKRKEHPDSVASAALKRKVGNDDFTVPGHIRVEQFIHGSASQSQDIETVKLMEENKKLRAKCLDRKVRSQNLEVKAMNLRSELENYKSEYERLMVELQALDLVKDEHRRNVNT


How the values were obtained:
[1] = biological target: T1, MOM1 CMM2 domain (aa1660-aa1860), yeast two-hybrid fusion (Arabidopsis thaliana); test: two-hybrid; Gal4-BD (pGBKT7-GW) and Gal4-AD (pGADT7-GW) fusions co-transformed into yeast AH109; growth on SD-TLH with 5 mM 3AT after 2-3 days
[2] = biological target: T2, MORC6, yeast two-hybrid fusion (Arabidopsis thaliana); test: as above
[3] = biological target: T3, MORC6-FLAG (Arabidopsis thaliana); test: co-IP; 2-week-old seedlings of MORC6-FLAG X PIAL2-Myc F1, PIAL2-Myc plants as control; anti-FLAG M2 affinity gel, 4 °C, 2 h; eluted with 3xFLAG peptide; western blot with anti-Myc and anti-FLAG

binding [1] | binding [2] | binding [3] | Binder
binds | binds |  | PIAL1, yeast two-hybrid fusion (protein, UniProt A0A0A7EPL0 1-847) MVIPATSRFGFRAEFNTKEFQASCISLANEIDAAIGRNEVPGNIQELALILNNVCRRKCDDYQTRAVVMALMISVKSACQLGWFPERETQELLAIIDLMWNGFSCPENVTSCVNSPVTLISQVIERFYPCVKLGHILVSFEAKPESKMMMKDFHISKKMPHSPKQKVGLFVVRTEDISRSNCIVHPQGVSFLLNGKGIDKRVNISMESGPQLPTNVTALLNLGANLLQAIGCFGGSYLIAIAFMDVIPLPNKPLLKDYVHPEVVGSNSDCDIIEGPSRISLSCPISRTRIKLPVKGHVCKHLQCFDFWNYVNMNTRRPSWRCPHCNQSVCYTDIRVDQKLRKILEEVGRNAADVVISADGTWMVETENDEDVELVPETTHDHGDPNSFINLGPTVKNPARDENEMETSTQVEEHNPCLSEIQGPSNDTHRPASDYTMLNQSHTSTNTLPQLPRTLNAFDGQQFVNLPQVINTRDSPASQALPMTFSPTPSPQDILATNAANFGTSMPAAQSSQFQGSHVTSLGNCEGRTSDLMARWNHIYGRVQTQFPPAPLSHHHYSMQNQSPSPAQQRPVPSYIAHPQTFHVNYGENADQRWMPSSIAHPQTLPVNYGGNTNQRPIPSSIAHPQTLPVNYRGNTDHRSTPYSITHLQTLLNYGGNADQRPMPSSITNLQTLPATYGGYAHQRPMSSSITHPRTSPVNYGGTPDQRPMPSSITHPQTLPVSYGGTTDQILNPGGAMGQFSSREFMNLTPANTENWRPQSRMRGSVAPGTGYDHMIIHPTRPVHPQAQTPPAPLSTSYDGADEIQAFIGHPSYPVSNNETQAGTSSLPVAEGLGYSGSFWSMPPETW
binds | binds |  | PIAL2, yeast two-hybrid fusion (protein, UniProt F4JYG0 1-760) MSTAAAARPVAGTGLREKTAASLVNSFRLASVTQRLRYHIQDGAKVDPKEFQICCISFAKGIDFAIANNDIPKKVEEFPWLLKQLCRHGTDVYTKTALMVLMISVKHACHLGWFSDSESQELIALADEIRTCFGSSGSTSPGIKSPGSTFSQIMERFYPFVKLGHVLVSFEVKAGYTMLAHDFYISKNMPHSLQEKIRLFVAQTDNIDTSACISNPPEVSFLLNGKGVEKRVNIAMDTGPQLPTNVTAQLKYGTNLLQVMGNFKGNYIIIIAFTGLVVPPEKPVLKDYLQSGVIEASPDSDIIEGPSRVSLSCPISRKRIKLPVKGQLCKHLQCFDFSNYVHINMRNPTWRCPHCNQPVCYPDIRLDQNMAKILKDVEHNAADVIIDAGGTWKVTKNTGETPEPVREIIHDLEDPMSLLNSGPVVFDLTGDDDAELEVFGDNKVEDRKPCMSDAQGQSNNNNTNKHPSNDDYSSIFDISDVIALDPEILSALGNTAPQPHQASNTGTGQQYSNLSQIPMSIDPMPVPVPFSQTPSPRDRPATTSTVFTIPNPSPQYSQVHASPVTPTGTYLGRTTSPRWNQTYQSQAPPMTTPYTSRKVSVPVTSQSPANVSSFVQSQHVPRVLSQPNNYGVRGLTSSHASTSRQHPSGPTVQSVSRLSDLVDVDLTVPDTSNWRPRMRGSLVPGSHSTALDHMIIRPSQQSQTSTRLNSSQPVQTPSVQTSQAQSPFTTAAYRTETVLGNRNHPVPAPPGIVRPTGPTS
 |  | binds | PIAL2-Myc (protein, UniProt F4JYG0 1-760) MSTAAAARPVAGTGLREKTAASLVNSFRLASVTQRLRYHIQDGAKVDPKEFQICCISFAKGIDFAIANNDIPKKVEEFPWLLKQLCRHGTDVYTKTALMVLMISVKHACHLGWFSDSESQELIALADEIRTCFGSSGSTSPGIKSPGSTFSQIMERFYPFVKLGHVLVSFEVKAGYTMLAHDFYISKNMPHSLQEKIRLFVAQTDNIDTSACISNPPEVSFLLNGKGVEKRVNIAMDTGPQLPTNVTAQLKYGTNLLQVMGNFKGNYIIIIAFTGLVVPPEKPVLKDYLQSGVIEASPDSDIIEGPSRVSLSCPISRKRIKLPVKGQLCKHLQCFDFSNYVHINMRNPTWRCPHCNQPVCYPDIRLDQNMAKILKDVEHNAADVIIDAGGTWKVTKNTGETPEPVREIIHDLEDPMSLLNSGPVVFDLTGDDDAELEVFGDNKVEDRKPCMSDAQGQSNNNNTNKHPSNDDYSSIFDISDVIALDPEILSALGNTAPQPHQASNTGTGQQYSNLSQIPMSIDPMPVPVPFSQTPSPRDRPATTSTVFTIPNPSPQYSQVHASPVTPTGTYLGRTTSPRWNQTYQSQAPPMTTPYTSRKVSVPVTSQSPANVSSFVQSQHVPRVLSQPNNYGVRGLTSSHASTSRQHPSGPTVQSVSRLSDLVDVDLTVPDTSNWRPRMRGSLVPGSHSTALDHMIIRPSQQSQTSTRLNSSQPVQTPSVQTSQAQSPFTTAAYRTETVLGNRNHPVPAPPGIVRPTGPTS
